Chains of the proteins cited; added tags and fusions are not shown.
UniProt Q9Z1M0, whole entry: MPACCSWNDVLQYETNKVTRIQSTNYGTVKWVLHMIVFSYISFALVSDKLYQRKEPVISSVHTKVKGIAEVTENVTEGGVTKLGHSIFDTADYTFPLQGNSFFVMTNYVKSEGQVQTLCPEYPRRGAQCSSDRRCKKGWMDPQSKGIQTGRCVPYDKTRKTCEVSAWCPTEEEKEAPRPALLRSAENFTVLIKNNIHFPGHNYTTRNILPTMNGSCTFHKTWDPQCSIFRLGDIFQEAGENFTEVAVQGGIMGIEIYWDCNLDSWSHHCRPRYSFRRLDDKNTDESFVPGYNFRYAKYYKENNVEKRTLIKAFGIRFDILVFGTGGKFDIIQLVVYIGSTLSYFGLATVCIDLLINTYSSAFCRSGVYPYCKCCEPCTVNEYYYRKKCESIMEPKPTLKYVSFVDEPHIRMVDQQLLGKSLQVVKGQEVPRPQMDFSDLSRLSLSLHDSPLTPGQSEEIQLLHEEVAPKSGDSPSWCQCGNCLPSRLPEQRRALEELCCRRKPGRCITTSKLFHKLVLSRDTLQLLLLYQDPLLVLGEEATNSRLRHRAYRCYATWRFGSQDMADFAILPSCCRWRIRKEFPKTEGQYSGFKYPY

According to paper PMC3568910, “P2X7 Receptor Activation Induces Reactive Oxygen Species Formation and Cell Death in Murine EOC13 Microglia” (Mediators of Inflammation, 2013):

Target: P2X7 (Mus musculus, UniProt Q9Z1M0)
Assay: Fixed-time ethidium+ uptake assay (flow cytometry) in EOC13 microglial cells
Assay type: cell-based, murine
Conditions: antagonist 10 μM, 15 min preincubation, 1 mM ATP

In the case of `O=C(CC12CC3CC(CC(C3)C1)C2)Nc1cccc2nc(NCCNCCO)ccc12` [AZ10606120], the “impairment of ATP-induced ethidium+ uptake” value is reported as 100 ± 0% and completely impaired.

Certain results were filed several times, with different values. Only these are listed. The source may hold further records. Results that share an entry differ for a reason that is not stated; some may be repeats, others may stem from another dose, organism or construct than stated.
